The structures given here were assigned with low confidence; some may be wrong.
Each compound was assayed against SCD-1 (Homo sapiens, UniProt O00767) (assay: Stearoyl-CoA desaturase assay (HepG2 cell P2 pellet)). Conditions: read-out: Ave IC50 nM; Table 1, compounds of formula (Ia); protein from HepG2 cell P2 pellet, 20 μM stearoyl-CoA, 15 min at 25° C.

Chains of the proteins cited; added tags and fusions are not shown.
UniProt O00767, whole entry: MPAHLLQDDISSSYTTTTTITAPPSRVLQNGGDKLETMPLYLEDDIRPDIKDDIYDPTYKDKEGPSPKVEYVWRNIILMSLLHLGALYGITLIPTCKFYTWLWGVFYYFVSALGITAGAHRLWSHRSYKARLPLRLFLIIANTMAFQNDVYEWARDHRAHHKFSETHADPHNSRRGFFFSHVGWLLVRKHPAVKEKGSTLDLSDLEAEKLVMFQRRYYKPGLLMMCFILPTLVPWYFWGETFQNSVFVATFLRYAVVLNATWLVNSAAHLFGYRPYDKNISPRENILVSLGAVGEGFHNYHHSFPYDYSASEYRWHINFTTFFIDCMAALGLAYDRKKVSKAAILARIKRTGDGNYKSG

| SMILES | IC50 [nM] |
| --- | --- |
| CC(=O)NCC(=O)N1CCC2(CC1)CCN(Cc1ccc(C(C)(C)C)cc1)c1cccc(Cl)c1O2 [Compound 15] | 500 to 10000 |
| CCc1ccc(CN2CCC3(CCN(C(=O)CNC(C)=O)CC3)Oc3c(F)cccc32)cc1 [Compound 47] | 50 to 499 |
| CC(=O)NCC(=O)N1CCC2(CC1)CCN(Cc1cccc(C(F)(F)F)c1)c1cccc(F)c1O2 [Compound 45] | 500 to 10000 |
| CC(=O)NCC(=O)N1CCC2(CC1)CCN(Cc1ccc(C(C)(C)C)cc1)c1cccc(F)c1O2 [Compound 46] | 50 to 499 |

— patent US20120220567A1, “BENZO-FUSED OXAZEPINE COMPOUNDS AS STEAROYL-COENZYME A DELTA-9 DESATURASE INHIBITORS” (priority 2009, published 2012)
